# Publication PMC10724235
# The chains behind the UniProt entries cited, without tags or fusion partners.
# UniProt O15105: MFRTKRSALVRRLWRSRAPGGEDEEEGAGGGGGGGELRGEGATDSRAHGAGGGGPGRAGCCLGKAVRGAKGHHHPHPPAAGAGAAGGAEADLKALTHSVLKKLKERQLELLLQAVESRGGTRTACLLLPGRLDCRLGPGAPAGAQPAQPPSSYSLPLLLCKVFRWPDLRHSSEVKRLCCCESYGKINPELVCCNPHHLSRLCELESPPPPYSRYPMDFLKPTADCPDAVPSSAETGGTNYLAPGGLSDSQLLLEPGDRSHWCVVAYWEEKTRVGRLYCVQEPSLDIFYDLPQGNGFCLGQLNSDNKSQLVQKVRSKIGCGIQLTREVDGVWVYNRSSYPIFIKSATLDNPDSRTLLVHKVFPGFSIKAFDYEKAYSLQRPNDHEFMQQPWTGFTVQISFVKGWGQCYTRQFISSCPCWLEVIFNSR
# UniProt Q9HAU4: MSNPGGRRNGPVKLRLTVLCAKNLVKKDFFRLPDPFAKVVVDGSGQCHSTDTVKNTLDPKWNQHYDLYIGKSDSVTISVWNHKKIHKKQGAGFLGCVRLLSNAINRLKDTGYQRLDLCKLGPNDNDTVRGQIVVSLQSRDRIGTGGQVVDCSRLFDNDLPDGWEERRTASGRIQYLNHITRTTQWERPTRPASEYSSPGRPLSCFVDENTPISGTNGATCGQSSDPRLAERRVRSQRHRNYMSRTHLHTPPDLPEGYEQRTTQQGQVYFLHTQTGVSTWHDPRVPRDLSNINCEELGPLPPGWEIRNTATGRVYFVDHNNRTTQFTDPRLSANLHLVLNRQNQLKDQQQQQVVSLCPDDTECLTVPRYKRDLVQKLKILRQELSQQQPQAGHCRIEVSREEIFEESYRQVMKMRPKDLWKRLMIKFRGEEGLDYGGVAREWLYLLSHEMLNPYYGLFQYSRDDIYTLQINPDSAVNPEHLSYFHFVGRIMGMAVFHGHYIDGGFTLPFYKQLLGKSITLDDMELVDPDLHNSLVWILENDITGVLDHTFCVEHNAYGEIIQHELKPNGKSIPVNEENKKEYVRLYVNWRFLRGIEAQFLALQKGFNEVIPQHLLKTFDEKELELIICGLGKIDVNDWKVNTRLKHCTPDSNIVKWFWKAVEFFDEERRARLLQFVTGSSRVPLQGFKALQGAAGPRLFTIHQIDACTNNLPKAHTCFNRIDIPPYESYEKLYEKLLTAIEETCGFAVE
# No constants are given. Whether binding was seen depends on the method and setting. In cells and extracts the contact can be indirect. Some binding calls cover weakened binding; strength is not graded here.
# Biological target: FLAG-tagged SMAD7 (UniProt O15105)
# Experiment: co-IP; HEK293T transfected with MYC-SMURF2, Flag-SMAD7 and/or GST-SHP2, lysed after 48 h; immunoprecipitated with anti-FLAG affinity resin, blotted; with and without co-expressed SHP2
substance,measurement,value
MYC-tagged SMURF2 (from UniProt Q9HAU4 1-748) (enzyme),binding,binds
